Our source for the binding values is PMC7206185.

By UniProt entry, the sequences of proteins in these tests, tags left out.
UniProt Q9QZL0: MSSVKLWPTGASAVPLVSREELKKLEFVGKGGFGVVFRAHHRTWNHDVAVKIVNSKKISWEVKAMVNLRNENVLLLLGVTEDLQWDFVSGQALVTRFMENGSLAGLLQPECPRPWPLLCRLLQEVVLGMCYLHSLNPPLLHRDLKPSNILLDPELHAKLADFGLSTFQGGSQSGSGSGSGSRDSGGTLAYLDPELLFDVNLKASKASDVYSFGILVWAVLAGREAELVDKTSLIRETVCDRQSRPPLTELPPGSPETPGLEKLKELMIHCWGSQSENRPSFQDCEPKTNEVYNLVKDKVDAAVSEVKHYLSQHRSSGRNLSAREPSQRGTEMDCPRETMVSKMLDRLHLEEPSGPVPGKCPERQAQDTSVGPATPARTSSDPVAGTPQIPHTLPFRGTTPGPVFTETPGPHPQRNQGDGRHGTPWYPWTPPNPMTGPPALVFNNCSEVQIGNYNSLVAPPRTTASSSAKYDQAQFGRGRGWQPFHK
UniProt P45481: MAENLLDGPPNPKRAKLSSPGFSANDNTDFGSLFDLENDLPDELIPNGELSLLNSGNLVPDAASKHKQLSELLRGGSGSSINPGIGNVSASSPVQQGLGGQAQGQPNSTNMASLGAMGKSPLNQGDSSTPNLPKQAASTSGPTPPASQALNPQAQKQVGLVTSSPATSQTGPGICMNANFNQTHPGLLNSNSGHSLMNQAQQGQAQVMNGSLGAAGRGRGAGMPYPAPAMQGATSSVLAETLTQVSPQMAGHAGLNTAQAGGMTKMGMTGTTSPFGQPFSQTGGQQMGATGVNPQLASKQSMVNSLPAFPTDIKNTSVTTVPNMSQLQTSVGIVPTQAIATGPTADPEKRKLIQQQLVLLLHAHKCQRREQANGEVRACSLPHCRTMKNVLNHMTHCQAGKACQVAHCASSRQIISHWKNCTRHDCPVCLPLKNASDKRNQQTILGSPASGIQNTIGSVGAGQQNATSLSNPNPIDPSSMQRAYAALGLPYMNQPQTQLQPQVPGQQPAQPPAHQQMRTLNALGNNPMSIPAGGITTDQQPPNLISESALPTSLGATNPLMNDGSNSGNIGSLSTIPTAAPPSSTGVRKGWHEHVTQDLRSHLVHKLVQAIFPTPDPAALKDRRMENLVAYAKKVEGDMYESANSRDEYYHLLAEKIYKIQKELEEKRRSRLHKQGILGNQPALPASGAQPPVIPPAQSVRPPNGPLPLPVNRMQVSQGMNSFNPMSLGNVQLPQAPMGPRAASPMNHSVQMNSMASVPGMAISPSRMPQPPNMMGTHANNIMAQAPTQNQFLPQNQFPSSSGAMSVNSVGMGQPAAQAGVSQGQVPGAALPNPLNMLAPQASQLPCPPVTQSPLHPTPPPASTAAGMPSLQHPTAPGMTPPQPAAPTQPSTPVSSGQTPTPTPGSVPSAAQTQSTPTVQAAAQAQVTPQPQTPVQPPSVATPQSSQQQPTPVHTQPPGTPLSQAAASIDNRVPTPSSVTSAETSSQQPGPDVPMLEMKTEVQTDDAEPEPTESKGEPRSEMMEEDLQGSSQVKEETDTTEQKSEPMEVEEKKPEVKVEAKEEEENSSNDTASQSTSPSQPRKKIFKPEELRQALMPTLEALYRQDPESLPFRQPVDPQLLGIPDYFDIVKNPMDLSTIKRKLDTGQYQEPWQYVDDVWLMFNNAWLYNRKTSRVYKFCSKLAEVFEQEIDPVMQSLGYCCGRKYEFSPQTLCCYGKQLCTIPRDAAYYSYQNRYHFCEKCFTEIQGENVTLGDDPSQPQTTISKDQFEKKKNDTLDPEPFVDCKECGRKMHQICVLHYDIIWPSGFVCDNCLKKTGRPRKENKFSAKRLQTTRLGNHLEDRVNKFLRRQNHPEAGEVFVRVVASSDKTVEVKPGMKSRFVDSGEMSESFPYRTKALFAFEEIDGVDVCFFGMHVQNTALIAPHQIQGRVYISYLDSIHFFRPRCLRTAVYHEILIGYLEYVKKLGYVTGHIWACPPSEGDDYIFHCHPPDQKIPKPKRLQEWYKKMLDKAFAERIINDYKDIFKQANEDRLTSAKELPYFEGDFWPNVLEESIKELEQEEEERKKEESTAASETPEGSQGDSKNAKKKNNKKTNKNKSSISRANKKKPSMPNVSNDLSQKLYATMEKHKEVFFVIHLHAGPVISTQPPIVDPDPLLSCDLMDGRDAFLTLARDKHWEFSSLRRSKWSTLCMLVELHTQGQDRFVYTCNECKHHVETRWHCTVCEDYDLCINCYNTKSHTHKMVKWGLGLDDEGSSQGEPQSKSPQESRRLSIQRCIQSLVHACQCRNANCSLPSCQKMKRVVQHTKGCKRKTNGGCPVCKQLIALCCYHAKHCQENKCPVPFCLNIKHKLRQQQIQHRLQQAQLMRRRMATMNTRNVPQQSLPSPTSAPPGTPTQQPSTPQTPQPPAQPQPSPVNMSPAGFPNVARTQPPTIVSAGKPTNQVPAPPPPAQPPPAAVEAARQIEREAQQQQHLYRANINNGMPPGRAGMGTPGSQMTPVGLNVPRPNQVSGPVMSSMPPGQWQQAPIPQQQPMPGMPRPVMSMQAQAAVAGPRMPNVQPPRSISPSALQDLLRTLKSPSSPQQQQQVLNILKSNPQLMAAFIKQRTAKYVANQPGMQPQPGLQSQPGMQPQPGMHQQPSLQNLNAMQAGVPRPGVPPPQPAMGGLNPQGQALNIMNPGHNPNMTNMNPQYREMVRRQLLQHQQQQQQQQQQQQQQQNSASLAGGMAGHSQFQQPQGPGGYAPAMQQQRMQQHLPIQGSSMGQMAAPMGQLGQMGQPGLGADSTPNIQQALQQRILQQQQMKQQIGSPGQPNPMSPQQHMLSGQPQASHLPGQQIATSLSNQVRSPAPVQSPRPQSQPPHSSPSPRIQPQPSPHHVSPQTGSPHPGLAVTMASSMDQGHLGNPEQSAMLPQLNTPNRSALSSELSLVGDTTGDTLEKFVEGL
UniProt P56581: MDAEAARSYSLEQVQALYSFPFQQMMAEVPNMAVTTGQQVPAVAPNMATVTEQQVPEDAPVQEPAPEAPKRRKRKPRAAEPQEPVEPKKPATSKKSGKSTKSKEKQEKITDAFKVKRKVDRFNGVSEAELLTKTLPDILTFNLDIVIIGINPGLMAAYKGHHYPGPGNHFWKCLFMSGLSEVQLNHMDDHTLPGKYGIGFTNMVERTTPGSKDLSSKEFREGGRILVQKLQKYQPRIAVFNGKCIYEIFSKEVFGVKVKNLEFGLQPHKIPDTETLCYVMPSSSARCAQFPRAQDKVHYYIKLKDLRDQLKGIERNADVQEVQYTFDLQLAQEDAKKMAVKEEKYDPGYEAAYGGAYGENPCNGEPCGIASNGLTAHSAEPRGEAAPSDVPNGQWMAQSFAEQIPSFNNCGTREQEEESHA

Like-named read-outs stand apart in the source and are kept apart here. These are yes or no findings as the source states them, for the method shown. Binding seen in cells or lysates may run through a third protein. Some entries that bind do so weakly or less than the wild type.

Experiment [1] deals with T1, endogenous RARα (mouse (endogenous in TT2 ES cells)) (UniProt P11416).
T1 sequence: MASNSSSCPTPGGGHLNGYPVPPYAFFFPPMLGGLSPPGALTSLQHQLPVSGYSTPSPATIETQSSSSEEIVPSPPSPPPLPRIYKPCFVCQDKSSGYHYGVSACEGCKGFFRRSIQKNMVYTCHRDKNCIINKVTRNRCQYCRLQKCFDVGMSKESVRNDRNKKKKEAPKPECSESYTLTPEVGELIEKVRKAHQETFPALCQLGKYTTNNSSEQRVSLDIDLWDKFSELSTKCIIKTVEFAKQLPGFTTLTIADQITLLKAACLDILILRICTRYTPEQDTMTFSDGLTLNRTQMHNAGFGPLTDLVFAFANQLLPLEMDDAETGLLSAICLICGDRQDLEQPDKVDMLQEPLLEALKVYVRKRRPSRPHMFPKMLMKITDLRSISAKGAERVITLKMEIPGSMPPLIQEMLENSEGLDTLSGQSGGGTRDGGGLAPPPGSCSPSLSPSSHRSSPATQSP
The experiment can be described thus: co-IP; IP with anti-RARα (control IgG) from 4-day EBs of Tet-On shCasp8 ES cells, with or without 1 μg/ml Dox, with or without 1 μM RA for the last 2 days; endogenous proteins; RIPA buffer.

Experiment [2] deals with shRipk3-resistant 3xFlag-Wt RIPK3 (mouse) (UniProt Q9QZL0). The experiment can be described thus: co-IP; IP with anti-Flag antibody (control IgG) from 4-day EBs of Tet-On shCasp8 ES cells expressing shRipk3 and shRipk3-resistant 3xFlag-Ripk3, with or without 1 μg/ml Dox, with or without 1 μM RA for the last 2 days; western blot of endogenous partners; RIPA buffer.
Experiment [3] shares this target. The experiment is described as above. The source holds these as a separate data set.

For “endogenous RIPK3 (from UniProt Q9QZL0 1-486)”, the binding entry in experiment [1] is listed as “binds”. In the case of CBP (from UniProt P45481 1-2441), in experiment [2], the binding result is “binds”. Same read-out and setting: the result for TDG (from UniProt P56581 1-421) reads “binds”.

B1: endogenous RARα (protein, UniProt P11416 1-462)
chain: T1 sequence
Take B1: the binding result in experiment [3] is reported as “binds”.

B2: RXRα (protein, UniProt P28700 1-467)
chain: MDTKHFLPLDFSTQVNSSSLNSPTGRGSMAVPSLHPSLGPGIGSPLGSPGQLHSPISTLSSPINGMGPPFSVISSPMGPHSMSVPTTPTLGFGTGSPQLNSPMNPVSSTEDIKPPLGLNGVLKVPAHPSGNMASFTKHICAICGDRSSGKHYGVYSCEGCKGFFKRTVRKDLTYTCRDNKDCLIDKRQRNRCQYCRYQKCLAMGMKREAVQEERQRGKDRNENEVESTSSANEDMPVEKILEAELAVEPKTETYVEANMGLNPSSPNDPVTNICQAADKQLFTLVEWAKRIPHFSELPLDDQVILLRAGWNELLIASFSHRSIAVKDGILLATGLHVHRNSAHSAGVGAIFDRVLTELVSKMRDMQMDKTELGCLRAIVLFNPDSKGLSNPAEVEALREKVYASLEAYCKHKYPEQPGRFAKLLLRLPALRSIGLKCLEHLFFFKLIGDTPIDTFLMEMLEAPHQAT
For B2, the binding result in experiment [3] is on record as “binds”.
